Laboratory results from article PMC12874371, “Screening of FDA-Approved Small Molecules to Discover Inhibitors of the Pseudomonas aeruginosa Quorum-Sensing Enzyme, PqsE” (Biochemistry, 2026).
Results are given in words; binding and its absence hold for the method and conditions named. In cells and extracts the contact can be indirect. Some results given as binding are weak or reduced against the parent protein; the word gives no strength.

Sequences of proteins named here, by UniProt entry; tags and fusion partners are left off.
UniProt P54292: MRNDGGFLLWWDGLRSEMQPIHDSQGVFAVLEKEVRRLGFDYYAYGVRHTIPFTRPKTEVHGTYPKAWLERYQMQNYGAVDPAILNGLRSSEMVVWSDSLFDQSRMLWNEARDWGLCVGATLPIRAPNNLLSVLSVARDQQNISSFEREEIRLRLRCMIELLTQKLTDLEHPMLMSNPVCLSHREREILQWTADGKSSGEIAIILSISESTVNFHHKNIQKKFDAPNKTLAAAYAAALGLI
UniProt P20581: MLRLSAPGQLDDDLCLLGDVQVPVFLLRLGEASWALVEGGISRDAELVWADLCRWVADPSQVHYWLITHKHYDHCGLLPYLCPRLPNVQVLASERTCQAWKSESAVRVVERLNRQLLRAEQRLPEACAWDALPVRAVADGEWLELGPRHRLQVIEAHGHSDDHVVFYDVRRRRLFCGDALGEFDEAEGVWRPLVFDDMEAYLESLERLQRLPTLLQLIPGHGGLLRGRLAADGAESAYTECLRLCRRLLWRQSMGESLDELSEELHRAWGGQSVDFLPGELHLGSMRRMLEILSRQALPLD

Molecular target: RhlR (Pseudomonas aeruginosa) (UniProt P54292)
Assay: pull-down; in vitro pull-down of the PqsE-RhlR complex in the presence of Vorinostat, Trazodone or Apomorphine; bait and conditions not told in the text shown

PqsE (from UniProt P20581 1-301) (enzyme)
binding: binds
